Reference: publication PMC6679193, “Unraveling the Impact of Cysteine-to-Serine Mutations on the Structural and Functional Properties of Cu(I)-Binding Proteins” (International Journal of Molecular Sciences, 2019)
Substitutions are numbered along the chain they refer to. The exact form of at least one protein or probe is not confirmed. For some of these results: At least one verdict rests on a figure or table, not on a statement of the authors. Protein sequences can lack the tags named with them.

Experiments:
Assay in all cases: EMSA (fluorescence)
[1] = biological target: T1, CueR_C120S (Escherichia coli) (UniProt P0A9G4); conditions: 3 uM protein, 1.5 uM DNA, formaldehyde 0.74% after complex formation, similar to WT; 25 mM Tris-base pH 8, 250 mM NaCl, 5% v/v glycerol, 30 min at RT; then 0.74% formaldehyde 30 min on ice; 4.5% (37:1) native PAGE; recombinant protein; label: 5'-Cy5 on strand 1
T1 sequence (looked up, limits assumed): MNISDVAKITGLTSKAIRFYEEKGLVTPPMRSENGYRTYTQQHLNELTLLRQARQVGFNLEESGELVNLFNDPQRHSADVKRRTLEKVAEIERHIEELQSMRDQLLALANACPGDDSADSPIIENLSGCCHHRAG

[2] = biological target: T2, CueR_C112S (Escherichia coli) (UniProt P0A9G4); conditions: 3 uM protein, 1.5 uM DNA, formaldehyde 0.74% after complex formation, similar to WT; 25 mM Tris-base pH 8, 250 mM NaCl, 5% v/v glycerol, 30 min at RT; then 0.74% formaldehyde 30 min on ice; 4.5% (37:1) native PAGE; recombinant protein; label: 5'-Cy5 on strand 1
T2 sequence (looked up, limits assumed): T1 sequence (looked up, limits assumed) with C112S, S120C

[3] = biological target: T3, WT-CueR (Escherichia coli) (UniProt P0A9G4); conditions: 3 uM protein, 1.5 uM DNA, formaldehyde 0.74% after complex formation; 25 mM Tris-base pH 8, 250 mM NaCl, 5% v/v glycerol, 30 min at RT; then 0.74% formaldehyde 30 min on ice; 4.5% (37:1) native PAGE; recombinant protein; label: 5'-Cy5 on strand 1
T3 sequence (looked up, limits assumed): T1 sequence (looked up, limits assumed) with S120C

[4] = biological target: T4, CueR_C112S_C120S (Escherichia coli) (UniProt P0A9G4); conditions: 3 uM protein, 1.5 uM DNA, formaldehyde 0.74% after complex formation, similar to WT; 25 mM Tris-base pH 8, 250 mM NaCl, 5% v/v glycerol, 30 min at RT; then 0.74% formaldehyde 30 min on ice; 4.5% (37:1) native PAGE; recombinant protein; label: 5'-Cy5 on strand 1
T4 sequence (looked up, limits assumed): T1 sequence (looked up, limits assumed) with C112S

Measured: binding result

TTGACCTTCCCCTTGCTGGAAGGTTTA (double strand) [copA promoter DNA fragment]
binds: all assays above
